Measured values taken from PubChem BioAssay AID504467 (National Center for Advancing Translational Sciences (NCATS), 2011).
Out of some 330,000 compounds screened, about 7,700 (2.3%) were called active. Inconclusive means that the source gave no clear call. Such entries were picked first, then a sample of the others. Calls come from the whole dose curve; as a rule, active = well fitted inhibition curve with a large enough effect; inconclusive = small, poorly fitted or top-dose-only effect, or effect the other way; inactive = flat fitted curve, though single readings scatter. Potencies of inconclusive entries are doubtful fits and often do not repeat.

Test: qHTS screen for small molecules that inhibit ELG1-dependent DNA repair in human embryonic kidney (HEK293T) cells expressing luciferase-tagged ELG1; note: nearly all actives have a fitted effect of over 55% in size
Details: HEK293T ELG1-luciferase reporter, luminescence, 16 h, DNA damage induced by 5-fluorouridine; series mostly up to 46.1 µM
Procedure, shortened: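 DMSO vehicle served as the neutral condition. Each well held 2,000 cells given 5-fluorouridine plus compound; after 16 hr at 37 °C/5% CO2, ONE-Glo was added and luciferase measured 30 min later.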
Potency is the fitted concentration of half-maximal effect.

Row | SMILES | Potency
1 | COc1ccccc1N1CCN(C2CCCN(S(=O)(=O)c3ccccc3)C2)CC1 (stereo not drawn) | inconclusive: 18.3 µM [inhibitor, single point]
2 | CCOc1ccc(NC(=O)COc2coc(CN3CCc4ccccc4C3)cc2=O)cc1 | inconclusive: 0.206 µM [inhibitor, single point]
3 | CSc1nc(N2CCOCC2)c2c(c1C#N)CC(C)(C)OC2 | inconclusive: 13 µM [inhibitor, partial curve]
4 | CC(C)(C)Cc1nnc(NC(=O)c2ccco2)s1 | inconclusive: 25.9 µM [activator, single point]
5 | COc1ccc(NC(=O)COC(=O)CNS(=O)(=O)c2ccc(F)c(F)c2F)cc1OC | inconclusive: 16.4 µM [activator, partial curve, poor fit]
6 | COCCCNC(=O)COc1ccc(Br)cc1Cl | inconclusive: 18.4 µM [activator, partial curve]
7 | COc1ccc(Cc2nnc(SCC(=O)N3CCc4ccccc4C3)o2)cc1 | inconclusive: 18.4 µM [inhibitor, partial curve, poor fit]
8 | CN1CCCC(OC(=O)c2ccc(Cl)cc2)C1 (stereo not drawn) | inconclusive: 2.31 µM [inhibitor, partial curve, poor fit]
9 | COc1cc(/C=C2\SC(=S)N(CCC(=O)Nc3ccccc3O)C2=O)cc(OC)c1OC | active: 7.3 µM
10 | CCN(CC)c1ccc(/C=C2\C(=N)N3N=C(CC(=O)N4CCOCC4)SC3=NC2=O)cc1 | inconclusive: 20.6 µM [activator, single point]
11 | COc1ccc(S(=O)(=O)N2CCCc3ccccc32)cc1OC | inconclusive: 9.2 µM [activator, partial curve]
12 | CCC(C)Sc1ccc(-c2nc3ccccn3c2NCc2ccccc2)cc1OC (stereo not drawn) | inconclusive: 29.1 µM [inhibitor, single point]
13 | Cc1cccc2cc(CN(CC3CCCO3)C(=O)c3ccncc3)c(=O)[nH]c12 (stereo not drawn) | inactive
14 | Cc1ccc(S(=O)(=O)N2CCOCC2)cc1C(=O)OCC(=O)N1CCc2ccccc2C1 | inconclusive: 18.4 µM [inhibitor, single point]
15 | C/C(=N\NC(=O)CNC(=O)C1COc2ccccc2O1)c1ccco1 (stereo not drawn) | inactive
16 | O=c1c2ccccc2nnn1CSc1ccc2c(c1)OCCO2 | inconclusive: 9.2 µM [activator, partial curve]
17 | CCCCC(=O)NC(c1ccccc1Cl)c1ccc2cccnc2c1O (stereo not drawn) | active: 3.26 µM
18 | COC(=O)c1[nH]c2ccccc2c1NC(=O)Oc1ccccc1 | inconclusive: 18.4 µM [activator, partial curve]

Quoted from the listing:
COCCCNC(=O)COc1ccc(Br)cc1Cl | Potency: inconclusive: 18.4 µM [activator, partial curve]
CSc1nc(N2CCOCC2)c2c(c1C#N)CC(C)(C)OC2 | Potency: inconclusive: 13 µM [inhibitor, partial curve]
